Results taken from PubChem BioAssay AID2685 (National Center for Advancing Translational Sciences (NCATS), 2010).
This is one part of the list. Further columns of the screen follow, without active or inactive calls. Compounds called inactive in the main read-out are mostly missing here. The note in brackets gives the kind of curve behind each potency; many fits are weak.

Test: qHTS Assay for Lipid Storage Modulators in Drosophila S3 Cells;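 on cell number change: cells counted by Cell Tracker Red CMTPX staining in the red channel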
Settings: BODIPY lipid droplet fluorescence, 18-24 h; for cell number change: measured here: cell count max response, cells fed with added oleic acid
Summary of the method: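 Drosophila S3 cells got compounds at several concentrations plus oleic acid (400 uM solution). Laser-scanning cytometry with 488 nm excitation read lipid droplets at 500-530 nm and cells at 575-640 nm. Percent activity was relative to 20 uM Triacsin C.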

[1] = measured here: lipid fluorescence (Fed channel) AC50, cells fed with added oleic acid
[2] = measured here: cell number channel AC50, cells fed with added oleic acid

Row | Compound | cell number change [%] | AC50 [1] | AC50 [2]
1 | CC(C)(C)NC(=O)c1ccc2c(c1)N(CC(=O)N1CCCCC1)C(=O)C(C)(C)O2 | 18.8 |  | 
2 | Cc1cc(OCC(=O)Nc2ccc3oc(-c4ccncc4)nc3c2)ccc1Cl | -11.1 | 0.92 µM [rising, full curve] | 
3 | Cn1c(CCN2CCCCCC2)nc2cc(NC(=O)Nc3ccccc3)ccc21 | -6.45 | 16.4 µM [falling, single point] | 0.731 µM [falling, single point]
4 | CCOC(=O)c1c(-c2ccccc2)oc2cc(Br)c(O)c(C=O)c12 | -63.5 | 29.1 µM [falling, single point] | 20.6 µM [falling, partial curve]
5 | O=C(Nc1ccc2c(c1)OCCO2)C1c2ccccc2C(=O)N2CCc3ccccc3C12 (stereo not given) | -32 | 1.16 µM [rising, partial curve] | 29.1 µM [falling, single point]
6 | O=C(NNC(=S)Nc1ccc(F)cc1)c1ccccc1OC(F)F | 1.7 | 8.2 µM [rising, partial curve] | 
7 | CCCCCN(C(=O)CCC(=O)OCCOc1ccc(OC)cc1)c1c(N)n(CCCC)c(=O)[nH]c1=O | 50 |  | 6.51 µM [falling, single point]
8 | CCOC(=O)c1cc(C)sc1NC(=O)C(c1ccccc1)c1ccccc1 | 20.5 | 18.4 µM [rising, single point] | 
9 | CCc1ccc(NC(=O)CSc2nnc(-c3n[nH]c4ccccc34)n2-c2ccccc2)cc1 | -56.2 |  | 20.6 µM [falling, partial curve]
10 | O=C(COc1cc(Cl)ccc1Cl)Nc1nnc(CC(=O)N2CCOCC2)s1 | 19.3 | 4.11 µM [falling, single point] | 
11 | COC(=O)NNC(=O)COc1ccc(Br)c(C)c1 | -1.69 |  | 0.651 µM [falling, single point]
12 | CCc1ccc(C2CC(=O)N(c3ccc(F)cc3)C3=C2C(=O)OC3)cc1 (stereo not given) | -5.11 | 0.411 µM [falling, partial curve, poor fit] | 
13 | O=c1c2[nH]c3ccc(F)cc3c2ncn1CCN1CCOCC1 |  | 1.16 µM [rising, full curve, poor fit] | 
14 | O=C(c1cc(-c2cccs2)nc2ccccc12)N1CCN(S(=O)(=O)c2cccc(F)c2)CC1 | 52.5 | 2.06 µM [rising, partial curve] | 1.64 µM [rising, full curve, poor fit]
15 | CCOC(=O)N1CCN(S(=O)(=O)c2ccc(F)c(C(=O)Nc3cc(C)cc(C)c3)c2)CC1 | 131 | 6.51 µM [rising, single point] | 
16 | C/C(=N\NC(=O)c1ccc(-c2ccccc2)cc1)c1ccco1 | 26.7 | 29.1 µM [rising, single point] | 
17 | Cc1nnc(NC(=O)CSc2nnc3ncccn23)s1 | 15.2 | 20.6 µM [rising, partial curve] | 
18 | O=S(=O)(c1ccc(=S)[nH]c1)N1CCOCC1 | 22.7 | 5.17 µM [rising, full curve, poor fit] | 
19 | COc1ccc(-n2c(=S)[nH]c3ccccc32)cc1 | -1.35 | 6.51 µM [rising, single point] | 
20 | c1ccc(-n2cccc2CNC2CCCCC2)cc1 | 2.06 | 0.0058 µM [falling, full curve, poor fit] | 

Row | Compound | cell number change [%] | AC50 [1] | AC50 [2]
21 | O=S(=O)(c1ccc(Br)s1)N1CCN(c2ncccn2)CC1 | 91.9 | 6.51 µM [rising, single point] | 14.6 µM [rising, partial curve]
22 | O=C(N/N=C\c1ccc(O)c([N+](=O)[O-])c1)C1COc2ccccc2O1 (stereo not given) | 2.46 | 16.4 µM [rising, partial curve, poor fit] | 
23 | ON=C1CCN(c2ncc(C(F)(F)F)cc2Cl)CC1 | 20.5 | 16.4 µM [rising, partial curve, poor fit] | 
24 | CCCCCCSc1ccc(-c2nc3ccc(C)cn3c2NCc2ccccc2)cc1 | -44.6 | 29.1 µM [falling, single point] | 20.6 µM [falling, single point]
25 | CC(=O)c1cccc(OCc2cc(C(=O)N3C[C@@H](C)O[C@@H](C)C3)no2)c1 |  | 14.6 µM [rising, single point] | 
26 | O=C(Oc1ccc2c(c1)C(=O)c1ccccc1CO2)c1ccccc1 | -28.4 | 1.84 µM [falling, partial curve] | 0.326 µM [falling, full curve, poor fit]
27 | C/C(=N\NC(=O)COc1ccc(C)cc1C(C)C)c1cc2ccccc2o1 | -16.7 | 14.6 µM [falling, partial curve, poor fit] | 
28 | COc1ccc(NC(=O)CN(C)C(=O)C(Sc2ccccc2)c2ccccc2)cc1 (stereo not given) | -3.89 | 20.6 µM [falling, single point] | 
29 | CCOC(=O)CNc1nc(C(C)(C)C)nc2c1nnn2Cc1ccccc1Cl | -30.9 |  | 8.2 µM [falling, partial curve, poor fit]
30 | O=C1c2ccc3c4c(ccc(c24)C(=O)N1Cc1cccnc1)C(=O)N(Cc1cccnc1)C3=O |  | 6.51 µM [falling, single point] | 
31 | Cc1nonc1NC(=O)c1oc2ccc(F)cc2c1C | -22.4 | 0.58 µM [rising, single point] | 7.31 µM [falling, partial curve, poor fit]
32 | Fc1ccc(NC(=S)Nc2ccc(F)c(Cl)c2)cc1Cl | -75.4 |  | 2.06 µM [falling, partial curve]
33 | CC(C)(C)OC(=O)N[C@@H](COCc1ccccc1)C(=O)N[C@@H](CO)[C@H](O)[C@@H]1C[C@@H]1C(=O)N1CCCC1 | 29.1 |  | 
34 | CCC(=O)Nc1nnc(S(=O)(=O)N2CCCCCC2)s1 | 18.9 | 0.0231 µM [rising, full curve, poor fit] | 
35 | COc1ccc(C2SCC(=O)N2c2ccc(F)cc2)cc1 (stereo not given) | 15 |  | 
36 | N#Cc1nc(-c2ccc(Cl)cc2)oc1NCCc1ccccn1 | 56.1 | 29.1 µM [rising, single point] | 18.4 µM [rising, single point]
37 | CCCCOc1cccc(C(=O)Nc2ccc(NC(=O)c3cccs3)cc2)c1 | -21.9 |  | 0.164 µM [falling, full curve, poor fit]
38 | CN(C)/N=C/c1cc(Cl)cc([N+](=O)[O-])c1O | 22.7 | 32.6 µM [rising, single point] | 0.184 µM [rising, full curve]
39 | O=C(O)c1ccc(S(=O)(=O)N2CCOCC2)o1 |  | 0.58 µM [rising, single point] | 
40 | O=C(O)c1ncc(-c2ccccc2)cn1 | 6.54 |  | 6.51 µM [falling, single point]

Molecules above containing bromine:
Row | Compound | cell number change [%] | AC50 [1] | AC50 [2]
4 | CCOC(=O)c1c(-c2ccccc2)oc2cc(Br)c(O)c(C=O)c12 | -63.5 | 29.1 µM [falling, single point] | 20.6 µM [falling, partial curve]
11 | COC(=O)NNC(=O)COc1ccc(Br)c(C)c1 | -1.69 |  | 0.651 µM [falling, single point]
21 | O=S(=O)(c1ccc(Br)s1)N1CCN(c2ncccn2)CC1 | 91.9 | 6.51 µM [rising, single point] | 14.6 µM [rising, partial curve]

(cont.)

Row | Compound | cell number change [%] | AC50 [1] | AC50 [2]
41 | Cc1ccccc1NC(=O)Cc1nc(COC(=O)CCOc2ccccc2)cs1 | -6.63 | 0.58 µM [rising, single point] | 
42 | O=C(NCCNC(=O)c1cc(Cl)ccc1Cl)c1ccccn1 | -21.1 |  | 
43 | O=C(Nc1ccc(S(=O)(=O)N2CCc3ccccc3C2)cc1)c1ccccc1 | 35.8 | 0.92 µM [rising, full curve, poor fit] | 
44 | Cc1nn(CCC(=O)O)c(C)c1C | -33.9 | 25.9 µM [falling, partial curve] | 0.116 µM [falling, full curve]
45 | Cc1ccccc1C(=O)c1cccn1CC(=O)NC(C)c1ccccc1 (stereo not given) | -37.4 |  | 
46 | O=C(CSc1nnc(-c2ccncc2)o1)Nc1ccc(F)c(F)c1 | -13.9 | 0.731 µM [falling, full curve, poor fit] | 
47 | COc1cnc(-c2ccccn2)nc1Sc1ccccc1 |  | 0.00411 µM [rising, full curve, poor fit] | 
48 | CSc1cccc(NC(=O)/C=C/c2ccc(Cl)cc2)c1 | -26.8 | 25.9 µM [falling, partial curve] | 
49 | COc1ccc(C(=O)CSc2nnc(-c3cccs3)n2-c2ccccc2)cc1 |  | 0.092 µM [rising, full curve, poor fit] | 
50 | O=C(Nc1ccccc1Br)C1CCN(C(=O)Cc2ccccc2)CC1 | 1.76 |  | 
51 | Cc1ccc(NC(=O)c2ccco2)c([N+](=O)[O-])c1 | 11.8 |  | 
52 | O=C(NC(=S)Nc1cccnc1Cl)c1ccc(F)cc1 | -11.1 | 25.9 µM [rising, single point] | 
53 | Cc1nc(N)nc(Cl)c1Cc1ccc(Cl)cc1 | 56.6 |  | 0.58 µM [rising, full curve, poor fit]
54 | O=[N+]([O-])c1cc(S(=O)(=O)C(F)(F)F)ccc1NCC1CCCO1 (stereo not given) | -5.71 | 6.51 µM [rising, single point] | 
55 | Cc1ccccc1C(=O)N/N=C/c1ccc(OCC(=O)N2CCCCC2)cc1 | 14 | 6.51 µM [falling, single point] | 
56 | CCOc1ccc(-c2nnn(CC(=O)Nc3cccc(OC)c3)n2)cc1OCC |  | 6.51 µM [rising, single point] | 
57 | O=C(C1CCCN(S(=O)(=O)c2cccs2)C1)N1CCC(N2CCCCC2)CC1 (stereo not given) | -24.3 | 16.4 µM [falling, partial curve, poor fit] | 
58 | C#C[C@]1(OC(C)=O)CCC2C3CCC4=CC(=O)CC[C@@H]4C3CC[C@@]21C (stereo not given in full) | -29.7 | 23.1 µM [falling, partial curve, poor fit] | 
59 | COc1ccccc1NC(=O)c1ccc(Cl)c(S(=O)(=O)N2CCCCC2)c1 | 35.3 |  | 11.6 µM [rising, partial curve]
